The text below walks through data of article PMC9403187.

These are yes or no findings as the source states them, for the method shown. In cells and extracts the contact can be indirect. Binding calls can cover weak binding; strength is not graded here.

The assay has as its target MAYV GFP-nsP3 (wild type) (Mayaro virus). In words: co-IP; GFP-Trap Magnetic Agarose on 400 µg lysate of transfected HeLa cells, 2 h at 4°C; lysis and wash in 50 mM Tris-HCl pH 8.0, 100 mM NaCl, 1 mM MgCl2, 1% Triton X-100; immunoblot for GFP, G3BP1 and G3BP2 (the paper calls it GFP pull-down).

B1: Ras-GTPase-activating SH3 domain-binding protein 2 (G3BP2) (protein, UniProt Q9UN86 1-482)
chain: MVMEKPSPLLVGREFVRQYYTLLNKAPEYLHRFYGRNSSYVHGGVDASGKPQEAVYGQNDIHHKVLSLNFSECHTKIRHVDAHATLSDGVVVQVMGLLSNSGQPERKFMQTFVLAPEGSVPNKFYVHNDMFRYEDEVFGDSEPELDEESEDEVEEEQEERQPSPEPVQENANSGYYEAHPVTNGIEEPLEESSHEPEPEPESETKTEELKPQVEEKNLEELEEKSTTPPPAEPVSLPQEPPKAFSWASVTSKNLPPSGTVSSSGIPPHVKAPVSQPRVEAKPEVQSQPPRVREQRPRERPGFPPRGPRPGRGDMEQNDSDNRRIIRYPDSHQLFVGNLPHDIDENELKEFFMSFGNVVELRINTKGVGGKLPNFGFVVFDDSEPVQRILIAKPIMFRGEVRLNVEEKKTRAARERETRGGGDDRRDIRRNDRGPGGPRGIVGGGMMRDRDGRGPPPRGGMAQKLGSGRGTGQMEGRFTGQRR
B1: the binding result is “binds”.
